Consider 33 targets from the supplement of paper PMC10849652.

Protein sequences, listed by entry. Tags and fused reporters are not part of them. Lines headed by an entry give the natural chain unless they say otherwise; changes in a name come on top.
UniProt O14578, whole entry, looked up: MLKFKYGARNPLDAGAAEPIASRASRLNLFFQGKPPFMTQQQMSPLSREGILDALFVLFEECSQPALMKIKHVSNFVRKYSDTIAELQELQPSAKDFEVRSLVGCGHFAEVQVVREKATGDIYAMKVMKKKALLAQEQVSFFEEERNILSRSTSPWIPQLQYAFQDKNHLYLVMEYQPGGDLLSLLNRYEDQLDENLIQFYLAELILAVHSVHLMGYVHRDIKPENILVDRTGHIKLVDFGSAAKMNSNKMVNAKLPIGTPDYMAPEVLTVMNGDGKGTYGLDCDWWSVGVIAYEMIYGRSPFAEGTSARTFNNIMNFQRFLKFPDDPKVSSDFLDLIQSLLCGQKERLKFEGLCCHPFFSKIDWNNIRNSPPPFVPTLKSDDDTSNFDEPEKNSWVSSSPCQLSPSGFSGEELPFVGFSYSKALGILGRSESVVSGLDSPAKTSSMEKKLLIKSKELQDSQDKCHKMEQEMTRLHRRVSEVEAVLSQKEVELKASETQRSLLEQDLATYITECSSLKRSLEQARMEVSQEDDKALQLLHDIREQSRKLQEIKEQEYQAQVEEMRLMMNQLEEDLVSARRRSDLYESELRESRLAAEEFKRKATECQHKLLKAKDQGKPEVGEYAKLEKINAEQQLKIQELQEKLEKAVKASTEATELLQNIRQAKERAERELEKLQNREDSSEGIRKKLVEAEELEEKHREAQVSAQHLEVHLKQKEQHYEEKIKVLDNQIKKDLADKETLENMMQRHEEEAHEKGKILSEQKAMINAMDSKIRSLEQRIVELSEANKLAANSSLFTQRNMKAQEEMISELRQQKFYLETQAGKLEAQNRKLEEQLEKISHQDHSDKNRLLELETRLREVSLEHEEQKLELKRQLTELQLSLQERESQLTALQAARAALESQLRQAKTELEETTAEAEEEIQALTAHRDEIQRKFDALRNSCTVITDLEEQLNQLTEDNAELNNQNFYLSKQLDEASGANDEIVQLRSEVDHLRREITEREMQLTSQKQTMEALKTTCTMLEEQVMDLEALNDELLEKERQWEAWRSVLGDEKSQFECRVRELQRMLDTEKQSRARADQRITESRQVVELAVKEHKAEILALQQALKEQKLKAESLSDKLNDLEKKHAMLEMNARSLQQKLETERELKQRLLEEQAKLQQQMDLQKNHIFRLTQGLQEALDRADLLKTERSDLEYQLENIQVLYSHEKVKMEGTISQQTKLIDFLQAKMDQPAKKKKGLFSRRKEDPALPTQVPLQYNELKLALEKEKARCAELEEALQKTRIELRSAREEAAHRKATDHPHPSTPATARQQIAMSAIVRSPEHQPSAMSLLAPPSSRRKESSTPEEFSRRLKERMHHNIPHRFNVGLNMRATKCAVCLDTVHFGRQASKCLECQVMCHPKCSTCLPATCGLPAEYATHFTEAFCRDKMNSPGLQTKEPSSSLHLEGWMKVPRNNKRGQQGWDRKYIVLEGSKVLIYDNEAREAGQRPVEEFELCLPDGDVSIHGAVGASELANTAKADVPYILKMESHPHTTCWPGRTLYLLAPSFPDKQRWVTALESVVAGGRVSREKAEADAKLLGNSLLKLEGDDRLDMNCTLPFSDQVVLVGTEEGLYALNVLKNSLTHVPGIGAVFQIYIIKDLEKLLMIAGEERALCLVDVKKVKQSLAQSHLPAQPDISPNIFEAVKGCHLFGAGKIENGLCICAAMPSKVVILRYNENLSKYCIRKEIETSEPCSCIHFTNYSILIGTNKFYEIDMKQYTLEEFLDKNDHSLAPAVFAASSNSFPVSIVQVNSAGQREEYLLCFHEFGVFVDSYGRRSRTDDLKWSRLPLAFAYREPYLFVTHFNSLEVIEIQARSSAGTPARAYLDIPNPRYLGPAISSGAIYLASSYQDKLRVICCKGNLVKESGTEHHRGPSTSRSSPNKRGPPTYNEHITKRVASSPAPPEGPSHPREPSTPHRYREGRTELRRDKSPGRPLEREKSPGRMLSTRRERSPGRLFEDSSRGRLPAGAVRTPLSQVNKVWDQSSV
UniProt O14757: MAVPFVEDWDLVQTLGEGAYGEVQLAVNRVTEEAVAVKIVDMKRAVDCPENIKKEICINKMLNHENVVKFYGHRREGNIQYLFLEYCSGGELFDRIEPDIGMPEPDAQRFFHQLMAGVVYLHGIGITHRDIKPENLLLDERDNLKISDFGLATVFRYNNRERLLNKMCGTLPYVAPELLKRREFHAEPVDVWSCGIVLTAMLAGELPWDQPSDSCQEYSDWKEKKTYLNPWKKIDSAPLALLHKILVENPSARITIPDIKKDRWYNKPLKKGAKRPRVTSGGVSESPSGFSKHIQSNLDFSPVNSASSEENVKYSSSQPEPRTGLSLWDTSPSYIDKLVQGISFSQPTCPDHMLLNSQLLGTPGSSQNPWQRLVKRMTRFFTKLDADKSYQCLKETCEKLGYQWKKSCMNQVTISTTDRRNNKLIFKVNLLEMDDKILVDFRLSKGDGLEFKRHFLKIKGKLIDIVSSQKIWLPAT
UniProt Q5T1J5: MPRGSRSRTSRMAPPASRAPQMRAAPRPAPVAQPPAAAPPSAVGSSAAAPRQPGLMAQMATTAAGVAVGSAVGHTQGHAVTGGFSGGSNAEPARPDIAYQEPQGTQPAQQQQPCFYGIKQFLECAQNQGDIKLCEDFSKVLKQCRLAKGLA
UniProt Q14011: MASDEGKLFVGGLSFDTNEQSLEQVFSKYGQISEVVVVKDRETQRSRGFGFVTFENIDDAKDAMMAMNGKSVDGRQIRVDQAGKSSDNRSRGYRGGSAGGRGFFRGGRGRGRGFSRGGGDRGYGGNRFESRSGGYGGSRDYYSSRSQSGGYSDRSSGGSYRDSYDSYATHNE
UniProt P62633: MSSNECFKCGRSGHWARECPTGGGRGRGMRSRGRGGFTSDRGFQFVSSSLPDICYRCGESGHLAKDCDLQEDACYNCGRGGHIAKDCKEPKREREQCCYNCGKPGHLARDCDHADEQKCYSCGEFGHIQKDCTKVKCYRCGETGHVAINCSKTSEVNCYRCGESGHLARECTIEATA
UniProt Q96MX0: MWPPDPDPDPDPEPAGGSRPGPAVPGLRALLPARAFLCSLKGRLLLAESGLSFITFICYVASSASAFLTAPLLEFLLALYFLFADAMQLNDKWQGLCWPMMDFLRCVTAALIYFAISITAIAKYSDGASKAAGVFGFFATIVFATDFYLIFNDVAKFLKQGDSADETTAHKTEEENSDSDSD
UniProt Q9Y3D0: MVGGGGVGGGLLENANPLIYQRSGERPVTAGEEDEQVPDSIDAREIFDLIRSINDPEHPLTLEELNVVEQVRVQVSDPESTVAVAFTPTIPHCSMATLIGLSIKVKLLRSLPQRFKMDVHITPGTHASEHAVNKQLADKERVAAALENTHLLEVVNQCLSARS
UniProt Q8WUX9: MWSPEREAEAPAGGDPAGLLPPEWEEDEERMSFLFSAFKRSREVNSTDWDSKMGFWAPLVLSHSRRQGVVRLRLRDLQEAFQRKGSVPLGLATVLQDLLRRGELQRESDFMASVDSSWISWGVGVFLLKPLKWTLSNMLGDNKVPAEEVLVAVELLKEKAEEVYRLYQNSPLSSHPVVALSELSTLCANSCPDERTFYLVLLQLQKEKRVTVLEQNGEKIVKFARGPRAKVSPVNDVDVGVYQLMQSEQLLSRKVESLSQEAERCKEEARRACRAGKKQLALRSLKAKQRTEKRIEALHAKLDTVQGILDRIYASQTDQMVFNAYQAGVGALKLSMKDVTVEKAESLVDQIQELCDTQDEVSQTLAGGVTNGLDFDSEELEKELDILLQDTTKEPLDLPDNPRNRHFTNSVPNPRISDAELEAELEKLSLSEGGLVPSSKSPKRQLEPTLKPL
UniProt Q12873: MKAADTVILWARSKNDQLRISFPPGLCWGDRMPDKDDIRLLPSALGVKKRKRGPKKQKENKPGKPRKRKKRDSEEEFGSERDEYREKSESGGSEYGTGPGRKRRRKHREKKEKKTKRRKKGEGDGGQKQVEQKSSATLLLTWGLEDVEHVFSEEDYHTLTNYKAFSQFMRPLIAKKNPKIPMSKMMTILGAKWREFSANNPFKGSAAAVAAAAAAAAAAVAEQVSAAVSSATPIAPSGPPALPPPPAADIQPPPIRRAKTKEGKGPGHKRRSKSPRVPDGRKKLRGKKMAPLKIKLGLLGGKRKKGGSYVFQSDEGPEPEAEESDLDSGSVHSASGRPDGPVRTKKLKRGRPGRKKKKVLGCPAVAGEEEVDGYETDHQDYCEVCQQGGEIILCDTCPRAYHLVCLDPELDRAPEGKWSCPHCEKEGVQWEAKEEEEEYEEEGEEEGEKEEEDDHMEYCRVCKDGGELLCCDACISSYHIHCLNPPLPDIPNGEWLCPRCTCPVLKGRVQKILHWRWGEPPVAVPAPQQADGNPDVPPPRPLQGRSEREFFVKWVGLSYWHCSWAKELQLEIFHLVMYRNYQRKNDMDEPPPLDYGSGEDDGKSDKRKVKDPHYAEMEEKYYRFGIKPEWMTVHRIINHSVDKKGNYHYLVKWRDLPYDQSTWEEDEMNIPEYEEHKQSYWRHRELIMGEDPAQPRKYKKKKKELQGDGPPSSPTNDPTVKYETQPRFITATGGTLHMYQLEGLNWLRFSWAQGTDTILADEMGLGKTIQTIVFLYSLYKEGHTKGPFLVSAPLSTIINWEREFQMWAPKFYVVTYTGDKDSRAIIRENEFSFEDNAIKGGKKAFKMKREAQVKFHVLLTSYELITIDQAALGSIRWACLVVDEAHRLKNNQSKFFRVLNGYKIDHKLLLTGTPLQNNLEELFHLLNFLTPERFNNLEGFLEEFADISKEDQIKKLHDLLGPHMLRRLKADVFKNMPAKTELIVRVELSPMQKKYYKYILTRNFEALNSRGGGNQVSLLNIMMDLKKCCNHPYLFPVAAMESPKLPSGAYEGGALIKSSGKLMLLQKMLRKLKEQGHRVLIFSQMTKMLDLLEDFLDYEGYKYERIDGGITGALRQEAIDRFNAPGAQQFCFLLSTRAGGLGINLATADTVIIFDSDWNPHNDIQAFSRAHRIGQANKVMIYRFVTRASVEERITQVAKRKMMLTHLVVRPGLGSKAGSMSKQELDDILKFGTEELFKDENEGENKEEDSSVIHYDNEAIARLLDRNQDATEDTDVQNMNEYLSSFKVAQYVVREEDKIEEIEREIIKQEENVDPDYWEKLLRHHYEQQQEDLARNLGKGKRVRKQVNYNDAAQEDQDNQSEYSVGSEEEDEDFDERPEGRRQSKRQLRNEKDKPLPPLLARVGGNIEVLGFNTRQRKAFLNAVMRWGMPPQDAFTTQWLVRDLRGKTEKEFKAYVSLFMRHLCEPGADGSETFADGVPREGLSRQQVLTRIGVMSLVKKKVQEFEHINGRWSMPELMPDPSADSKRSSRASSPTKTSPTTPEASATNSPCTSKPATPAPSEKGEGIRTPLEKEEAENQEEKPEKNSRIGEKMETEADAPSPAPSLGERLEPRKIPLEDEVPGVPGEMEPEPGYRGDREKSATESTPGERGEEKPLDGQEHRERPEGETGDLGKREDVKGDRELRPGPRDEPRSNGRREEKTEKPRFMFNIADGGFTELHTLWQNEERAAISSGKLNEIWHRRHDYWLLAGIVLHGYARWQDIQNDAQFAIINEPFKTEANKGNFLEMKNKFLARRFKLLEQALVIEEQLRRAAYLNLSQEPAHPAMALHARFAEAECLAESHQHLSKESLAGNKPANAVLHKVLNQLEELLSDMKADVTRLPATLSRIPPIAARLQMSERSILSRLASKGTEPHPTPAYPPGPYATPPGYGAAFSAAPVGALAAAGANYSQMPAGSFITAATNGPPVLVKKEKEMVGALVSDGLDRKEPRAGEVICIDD
UniProt O15111: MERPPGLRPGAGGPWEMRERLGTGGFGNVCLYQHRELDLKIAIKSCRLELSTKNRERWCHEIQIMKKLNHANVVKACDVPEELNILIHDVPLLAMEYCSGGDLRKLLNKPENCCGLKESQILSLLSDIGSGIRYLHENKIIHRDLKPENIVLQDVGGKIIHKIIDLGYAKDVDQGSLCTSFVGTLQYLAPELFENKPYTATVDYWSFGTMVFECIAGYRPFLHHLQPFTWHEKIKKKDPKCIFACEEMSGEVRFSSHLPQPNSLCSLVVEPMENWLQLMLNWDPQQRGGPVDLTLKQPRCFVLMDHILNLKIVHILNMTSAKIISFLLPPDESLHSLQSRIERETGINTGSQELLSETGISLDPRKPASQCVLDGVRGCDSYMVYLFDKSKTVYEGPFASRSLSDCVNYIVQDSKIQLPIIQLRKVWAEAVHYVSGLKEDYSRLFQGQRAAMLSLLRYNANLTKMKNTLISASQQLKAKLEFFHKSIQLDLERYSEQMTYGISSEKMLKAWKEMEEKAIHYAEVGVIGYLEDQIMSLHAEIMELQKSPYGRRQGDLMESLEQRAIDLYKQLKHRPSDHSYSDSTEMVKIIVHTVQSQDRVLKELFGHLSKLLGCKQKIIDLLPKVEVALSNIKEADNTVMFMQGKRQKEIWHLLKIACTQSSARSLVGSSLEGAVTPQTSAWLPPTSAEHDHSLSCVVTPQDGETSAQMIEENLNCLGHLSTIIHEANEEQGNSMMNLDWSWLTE

Some of the results follow.

Compound in the test: CC1=C(C(CC(=O)N1)C2=CC=C(C=C2)C(F)(F)F)C(=O)NC3=C(C=C4C(=C3)C=NN4)F
The experiment in a line: log2 fold change, soluble protein after heating vs DMSO (PISA); higher = thermal stabilisation; K562 lysate, 10 uM; active = over 0.2 and 3.5 SD of the protein, either way, in both replicates (recomputed). Put shortly:
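Dounce homogenisation of K562 pellets in PBS pH 7.4 with 1 mM MgCl2 produced a crude extract, used at 1 mg/mL protein. Exposure to 10 μM compound lasted 30 min, and aliquots were then heated for 3 min across 48°C-58°C, pooled and brought to 0.5% NP-40 at 4°C. The supernatant after 21,000xg for 90 min was quantified by TMTpro 16plex LC-MS/MS with channel sums equalised. Duplicate values are given as log-two fold change in thermal stability relative to solvent controls.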
Regarding CIT isoform 4 (UniProt O14578), the log2 fold change was inactive: 0.005. Regarding CHEK1 (UniProt O14757), the log2 fold change was inactive: 0.004.

CHCHD2P9 (UniProt Q5T1J5): the log2 fold change is inactive: 0.064. The same measure for CIRBP (UniProt Q14011): inactive: 0; for CMIP (UniProt Q8IY22): inactive: 0.001. In the case of CHKA (UniProt P35790) it was inactive: -0.058. In the case of CHCHD4 isoform 2 (UniProt Q8N4Q1) it was inactive: 0.076; in that of CHM (UniProt P24386), inactive: -0.08.

On to CKM (UniProt P06732), for which the log2 fold change was inactive: -0.001. Regarding CHID1 (UniProt Q9BWS9), the log2 fold change was inactive: -0.02.

CMSS1 (UniProt Q9BQ75): the log2 fold change is inactive: -0.015.

For the target CHMP4A isoform 2 (UniProt Q9BY43), the log2 fold change is inactive: 0.011.

Regarding CNBP isoform 4 (UniProt P62633), the log2 fold change was inactive: -0.121. In the case of CHMP5 (UniProt Q9NZZ3) it was inactive: 0.008.

For CMC1 (UniProt Q7Z7K0), the log2 fold change is inactive: 0.051.

On to CHCHD3 (UniProt Q9NX63), for which the log2 fold change was inactive: -0.001. As to CMTM3 (UniProt Q96MX0), the log2 fold change was inactive: 0.052. In the case of CIAO2B (UniProt Q9Y3D0) it was inactive: -0.024; in that of CKMT2 (UniProt P17540), inactive: -0.039. As to CHRAC1 (UniProt Q9NRG0), the log2 fold change was inactive: 0.017.

On to CISD2 (UniProt Q8N5K1), for which the log2 fold change was inactive: 0.009. In the case of CIZ1 (UniProt Q9ULV3) it was inactive: -0.083; in that of CHD1 (UniProt O14646), inactive: 0.091; in that of CHURC1 isoform 2 (UniProt Q8WUH1), inactive: -0.065.

CIC (UniProt I3L2J0): the log2 fold change was inactive: 0.054.

In the case of CKAP5 (UniProt Q14008), the log2 fold change was inactive: 0.007.

With CHD5 (UniProt Q8TDI0), the log2 fold change was inactive: 0.026.

Take CHMP7 (UniProt Q8WUX9): the log2 fold change was inactive: -0.021. The same measure for CHD7 (UniProt Q9P2D1): inactive: 0.036; for CHD1L (UniProt Q86WJ1): inactive: 0.008. In the case of CHD3 isoform 3 (UniProt Q12873) it was inactive: 0.019; in that of CHKB (UniProt Q9Y259), inactive: 0.044. In the case of CHUK (UniProt O15111) it was inactive: -0.047.
